For two molecules, binding results are on record in article PMC8537223.

Chains of the proteins cited; added tags and fusions are not shown.
UniProt Q39255: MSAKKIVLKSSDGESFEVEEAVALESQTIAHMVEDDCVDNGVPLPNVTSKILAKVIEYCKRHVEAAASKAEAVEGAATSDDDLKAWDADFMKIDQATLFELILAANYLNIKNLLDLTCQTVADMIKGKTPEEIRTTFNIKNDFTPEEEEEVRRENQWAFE

No constants are given. Whether binding was seen depends on the method and setting. Some results given as binding are weak or reduced against the parent protein; the word gives no strength.

For test [1], the target named is T1, F-BOX STRESS INDUCED 1 (FBS1), full-length, yeast two-hybrid construct (Arabidopsis thaliana) (UniProt Q8GX77).
T1 sequence: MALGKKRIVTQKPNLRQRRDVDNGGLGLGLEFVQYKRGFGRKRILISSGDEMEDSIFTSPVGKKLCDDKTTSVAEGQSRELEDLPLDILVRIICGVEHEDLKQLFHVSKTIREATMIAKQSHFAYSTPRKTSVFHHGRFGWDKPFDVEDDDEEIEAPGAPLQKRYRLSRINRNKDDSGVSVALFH
Description: two-hybrid; GAL4 system, baits (DBD, pGBKT7-GW) in Y2H Gold mated with preys (AD, pGADT7-GW) in Y187; diploids spotted in dilutions on SD -TL, -TLH (less stringent) and -TLHA (more stringent), 2 days at 30 °C.

The target of test [2] is T2, F-BOX STRESS INDUCED 2 (FBS2), yeast two-hybrid construct (Arabidopsis thaliana) (UniProt O65416).
T2 sequence: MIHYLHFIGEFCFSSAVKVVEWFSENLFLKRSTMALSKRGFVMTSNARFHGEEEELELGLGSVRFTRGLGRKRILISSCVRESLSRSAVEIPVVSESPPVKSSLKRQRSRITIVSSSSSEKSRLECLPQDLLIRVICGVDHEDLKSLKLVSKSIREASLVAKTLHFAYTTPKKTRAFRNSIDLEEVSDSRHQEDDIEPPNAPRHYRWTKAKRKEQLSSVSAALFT
Described as above.

Test [3] concerns the target T3, F-BOX STRESS INDUCED 3 (FBS3), yeast two-hybrid construct (Arabidopsis thaliana) (UniProt Q9S9T6).
T3 sequence: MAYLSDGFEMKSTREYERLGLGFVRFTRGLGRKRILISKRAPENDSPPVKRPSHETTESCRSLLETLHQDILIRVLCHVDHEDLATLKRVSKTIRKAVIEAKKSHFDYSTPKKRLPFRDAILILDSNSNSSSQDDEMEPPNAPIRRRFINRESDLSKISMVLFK
The test is described as above.

Test [4] addresses T4, F-BOX STRESS INDUCED 4 (FBS4), yeast two-hybrid construct (Arabidopsis thaliana) (UniProt Q5XF11).
T4 sequence: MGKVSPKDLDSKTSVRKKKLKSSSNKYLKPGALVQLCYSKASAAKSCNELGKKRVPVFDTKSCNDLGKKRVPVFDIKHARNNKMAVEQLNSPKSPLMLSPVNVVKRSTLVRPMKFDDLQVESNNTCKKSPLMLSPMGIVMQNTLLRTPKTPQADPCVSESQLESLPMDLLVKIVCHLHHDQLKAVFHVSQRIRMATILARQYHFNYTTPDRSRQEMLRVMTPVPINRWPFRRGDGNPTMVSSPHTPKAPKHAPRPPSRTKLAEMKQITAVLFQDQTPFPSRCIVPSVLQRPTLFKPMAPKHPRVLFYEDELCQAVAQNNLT
The description is as above.

Test [5] concerns the target T1, F-BOX STRESS INDUCED 1 (FBS1), full-length, yeast two-hybrid construct (Arabidopsis thaliana). Description: two-hybrid; told in the text without a figure: FBS1 with the LXLXL leucines changed to alanine against FBIP1; FBS1 against TPL, both as bait and as prey.

Regarding “Arabidopsis SKP1 (ASK1), yeast two-hybrid construct (from UniProt Q39255 1-160)”, the binding result in test [1] was “binds”; in test [2], “binds weakly”; in test [3], “binds”; in test [4] it was “binds”.

B1: TOPLESS (TPL), yeast two-hybrid construct (protein, UniProt Q94AI7 1-1131)
chain: MSSLSRELVFLILQFLDEEKFKETVHKLEQESGFFFNMKYFEDEVHNGNWDEVEKYLSGFTKVDDNRYSMKIFFEIRKQKYLEALDKHDRPKAVDILVKDLKVFSTFNEELFKEITQLLTLENFRENEQLSKYGDTKSARAIMLVELKKLIEANPLFRDKLQFPTLRNSRLRTLINQSLNWQHQLCKNPRPNPDIKTLFVDHSCGPPNGARAPSPVNNPLLGGIPKAGGFPPLGAHGPFQPTASPVPTPLAGWMSSPSSVPHPAVSAGAIALGGPSIPAALKHPRTPPTNASLDYPSADSEHVSKRTRPMGISDEVNLGVNMLPMSFSGQAHGHSPAFKAPDDLPKTVARTLSQGSSPMSMDFHPIKQTLLLVGTNVGDIGLWEVGSRERLVQKTFKVWDLSKCSMPLQAALVKEPVVSVNRVIWSPDGSLFGVAYSRHIVQLYSYHGGEDMRQHLEIDAHVGGVNDISFSTPNKQLCVITCGDDKTIKVWDAATGVKRHTFEGHEAPVYSVCPHYKENIQFIFSTALDGKIKAWLYDNMGSRVDYDAPGRWCTTMAYSADGTRLFSCGTSKDGESFIVEWNESEGAVKRTYQGFHKRSLGVVQFDTTKNRYLAAGDDFSIKFWDMDAVQLLTAIDGDGGLQASPRIRFNKEGSLLAVSGNENVIKIMANSDGLRLLHTFENISSESSKPAINSIAAAAAAAATSAGHADRSANVVSIQGMNGDSRNMVDVKPVITEESNDKSKIWKLTEVSEPSQCRSLRLPENLRVAKISRLIFTNSGNAILALASNAIHLLWKWQRNERNATGKATASLPPQQWQPASGILMTNDVAETNPEEAVPCFALSKNDSYVMSASGGKISLFNMMTFKTMATFMPPPPAATFLAFHPQDNNIIAIGMDDSTIQIYNVRVDEVKSKLKGHSKRITGLAFSNVLNVLVSSGADAQLCVWNTDGWEKQRSKVLPLPQGRPNSAPSDTRVQFHQDQAHFLVVHETQLAIYETTKLECMKQWAVRESLAPITHATFSCDSQLVYASFMDATVCVFSSANLRLRCRVNPSAYLPASLSNSNVHPLVIAAHPQEPNMFAVGLSDGGVHIFEPLESEGKWGVAPPAENGSASGAPTAPSVGASASDQPQR
In the case of B1, the binding entry in test [5] was “no binding”.
